In general, IC50 refers to the concentration at which inhibition is half-maximal.

Amino acid sequences for entries named in this document (tags omitted). Chains listed by the source or under a name are the forms on record and can include a tag or linker.
UniProt Q9Y251, with tags, fused parts or gaps limits assumed: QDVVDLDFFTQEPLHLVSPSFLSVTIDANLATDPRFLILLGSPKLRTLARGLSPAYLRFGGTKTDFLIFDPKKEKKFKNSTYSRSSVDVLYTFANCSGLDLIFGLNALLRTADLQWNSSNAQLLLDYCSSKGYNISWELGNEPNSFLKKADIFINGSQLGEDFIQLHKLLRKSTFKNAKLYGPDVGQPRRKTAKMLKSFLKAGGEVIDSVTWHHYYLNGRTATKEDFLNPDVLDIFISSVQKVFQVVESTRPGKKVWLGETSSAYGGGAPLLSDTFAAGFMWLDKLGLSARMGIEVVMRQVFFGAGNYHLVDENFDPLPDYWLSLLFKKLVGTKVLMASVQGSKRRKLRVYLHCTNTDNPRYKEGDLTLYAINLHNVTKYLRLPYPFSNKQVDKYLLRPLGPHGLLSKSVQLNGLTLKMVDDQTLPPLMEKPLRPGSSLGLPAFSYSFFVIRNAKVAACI

Structures are written as SMILES. Certain results were filed several times, with different values. Only these are listed. The source may hold further records. Values given together differ, and nothing given here explains why; dose, time, organism, isomer or construct need not be as stated for each record.

The target in this assay is human GS3 heparanase (Homo sapiens, UniProt Q9Y251). The assay is described as follows: fondaparinux assay of heparanase enzymatic activity (WST-1 colorimetric). The class given is biochemical. The following applies: read-out: IC50 (µM) ± SD, heparanase inhibitory activity; fondaparinux assay on human GS3 heparanase; mean of triplicates. Background: Tetrazolium assays rely on reduction of a dye to a coloured formazan, in cell work by metabolically active cells.

For `O=C(O)c1ccc2c(c1)C(=O)N(c1ccc(Oc3ccc(Oc4ccc(N5C(=O)c6ccc(C(=O)O)cc6C5=O)cc4)cc3)cc1)C2=O`, the IC50 was < 5 µM and 2.17 µM.

Values taken from publication PMC7534336, “New classes of potent heparanase inhibitors from ligand-based virtual screening” (Journal of Enzyme Inhibition and Medicinal Chemistry, 2020).
